From the supplement of paper PMC6078165

Assays:
HCC1143 = experiment: relative JC-1 red fluorescence (viability) vs pre-drug, monoculture (fraction); higher = more viable cancer cells; conditions: coculture fibroblast: none (monoculture)
Method: (§1)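 JC-1 labelled TNBC cells grown in monoculture (density kept equal with unlabelled cancer cells) in 384-well plates in FluoroBrite medium, treated with one of 42 anticancer drugs at 0.1, 1, 10 or 100 uM. JC-1 red fluorescence (mitochondrial integrity, surrogate of apoptotic death) was read by plate reader every 8 h for 72 h. Values are normalised to each well's pre-drug value, with background from alamethicin. The stock of one drug was tenfold lower, so its dose labels may be too high. Monoculture values are repeated alongside each fibroblast plate and are averaged here.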

Hs578T = experiment: as above; conditions: coculture fibroblast: none (monoculture)
Method: as §1

CN(Cc1cnc2nc(N)nc(N)c2n1)c1ccc(C(=O)N[C@@H](CCC(=O)O)C(=O)O)cc1 [Methotrexate]
relative JC-1 red fluorescence
Conditions | 8 h | 16 h | 24 h | 32 h | 40 h | 48 h | 56 h | 64 h | 72 h
HCC1143, 0.1 µM | 0.8824 ± 0.0065 | 0.807 ± 0.0083 | 0.721 ± 0.011 | 0.6697 ± 0.0016 | 0.6182 ± 0.0052 | 0.5779 ± 0.0022 | 0.544 ± 0.0073 | 0.524 ± 0.015 | 0.499 ± 0.015
HCC1143, 1 µM | 0.878 ± 0.018 | 0.796 ± 0.024 | 0.707 ± 0.019 | 0.642 ± 0.022 | 0.583 ± 0.018 | 0.532 ± 0.019 | 0.494 ± 0.019 | 0.46 ± 0.023 | 0.437 ± 0.025
HCC1143, 10 µM | 0.896 ± 0.012 | 0.8 ± 0.026 | 0.74 ± 0.034 | 0.686 ± 0.038 | 0.625 ± 0.055 | 0.582 ± 0.048 | 0.551 ± 0.05 | 0.523 ± 0.051 | 0.512 ± 0.051
HCC1143, 100 µM | 0.8515 ± 0.0012 | 0.7491 ± 0.0042 | 0.68175 ± 0.00023 | 0.626 ± 0.0087 | 0.563 ± 0.0078 | 0.516 ± 0.0074 | 0.479 ± 0.0051 | 0.446 ± 0.0064 | 0.412 ± 0.01
Hs578T, 0.1 µM | 0.8554 ± 0.0085 | 0.759 ± 0.013 | 0.659 ± 0.014 | 0.5945 ± 0.0044 | 0.551 ± 0.0086 | 0.541 ± 0.013 | 0.523 ± 0.02 | 0.522 ± 0.025 | 0.52 ± 0.029
Hs578T, 1 µM | 0.903 ± 0.018 | 0.807 ± 0.062 | 0.754 ± 0.019 | 0.69 ± 0.0088 | 0.6584 ± 0.003 | 0.636 ± 0.014 | 0.616 ± 0.022 | 0.62 ± 0.029 | 0.61 ± 0.038
Hs578T, 10 µM | 0.835 ± 0.013 | 0.746 ± 0.025 | 0.651 ± 0.018 | 0.614 ± 0.021 | 0.559 ± 0.017 | 0.536 ± 0.02 | 0.513 ± 0.015 | 0.51 ± 0.016 | 0.498 ± 0.024
Hs578T, 100 µM | 0.846 ± 0.01 | 0.736 ± 0.01 | 0.705 ± 0.048 | 0.658 ± 0.045 | 0.625 ± 0.062 | 0.621 ± 0.068 | 0.602 ± 0.075 | 0.603 ± 0.092 | 0.598 ± 0.088

± gives the standard deviation of the averaged measurements. Values are relative to the signal before dosing, not to a vehicle control; the signal also falls without drug.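 The cancer cells are triple-negative breast cancer lines of basal-like or mesenchymal-like type, grown without fibroblasts. A drop in red signal reflects loss of mitochondrial integrity, a stand-in for apoptotic death.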
